Experimental data published in PMC6053369.
Results are given in words; binding and its absence hold for the method and conditions named. Binding seen in cells or lysates may run through a third protein. Some results given as binding are weak or reduced against the parent protein; the word gives no strength. For some assays here: Sequences can lack the tags named with a protein.

Amino acid sequences for entries named in this document (tags omitted). A change or cut given only in a name is not applied to a line headed by its entry. Residues count along the entry.
UniProt Q8BKJ9: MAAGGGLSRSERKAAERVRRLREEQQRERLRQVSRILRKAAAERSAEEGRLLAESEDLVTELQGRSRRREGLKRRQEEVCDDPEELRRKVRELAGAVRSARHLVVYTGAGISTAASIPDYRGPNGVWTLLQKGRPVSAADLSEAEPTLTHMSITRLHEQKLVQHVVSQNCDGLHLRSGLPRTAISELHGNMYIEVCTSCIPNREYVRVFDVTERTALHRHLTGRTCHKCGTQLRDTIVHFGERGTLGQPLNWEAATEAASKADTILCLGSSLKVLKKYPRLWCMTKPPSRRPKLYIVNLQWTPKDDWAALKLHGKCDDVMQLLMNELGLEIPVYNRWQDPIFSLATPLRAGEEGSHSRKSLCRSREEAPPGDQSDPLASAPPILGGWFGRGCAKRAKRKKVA
Halo-SIRT7 (M2)-FLAG: residues 91-210 of Q8BKJ9
UniProt Q8VI67: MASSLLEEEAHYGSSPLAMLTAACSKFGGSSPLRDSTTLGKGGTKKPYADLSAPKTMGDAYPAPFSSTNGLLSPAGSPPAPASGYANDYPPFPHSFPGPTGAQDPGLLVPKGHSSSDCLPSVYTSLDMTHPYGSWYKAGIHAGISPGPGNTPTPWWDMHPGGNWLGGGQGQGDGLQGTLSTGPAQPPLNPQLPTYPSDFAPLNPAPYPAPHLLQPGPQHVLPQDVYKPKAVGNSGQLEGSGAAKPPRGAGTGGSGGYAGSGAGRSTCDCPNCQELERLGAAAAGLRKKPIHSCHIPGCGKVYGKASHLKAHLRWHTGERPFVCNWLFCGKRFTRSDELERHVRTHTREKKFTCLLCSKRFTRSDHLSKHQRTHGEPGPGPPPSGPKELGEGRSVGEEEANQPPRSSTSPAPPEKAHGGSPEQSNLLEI

Assays:
HA-SIRT1 (mouse) = molecular target: T1, HA-SIRT1 (mouse) (UniProt Q923E4); test: co-IP; HEK293T cells transfected for 24 h, lysed in IP buffer (20 mM Tris-HCl pH 7.4, 200 mM NaCl, 2.5 mM MgCl2, 0.05% NP-40); immunoprecipitation overnight at 4 C with anti-HA antibody beads; western blot
T1 sequence: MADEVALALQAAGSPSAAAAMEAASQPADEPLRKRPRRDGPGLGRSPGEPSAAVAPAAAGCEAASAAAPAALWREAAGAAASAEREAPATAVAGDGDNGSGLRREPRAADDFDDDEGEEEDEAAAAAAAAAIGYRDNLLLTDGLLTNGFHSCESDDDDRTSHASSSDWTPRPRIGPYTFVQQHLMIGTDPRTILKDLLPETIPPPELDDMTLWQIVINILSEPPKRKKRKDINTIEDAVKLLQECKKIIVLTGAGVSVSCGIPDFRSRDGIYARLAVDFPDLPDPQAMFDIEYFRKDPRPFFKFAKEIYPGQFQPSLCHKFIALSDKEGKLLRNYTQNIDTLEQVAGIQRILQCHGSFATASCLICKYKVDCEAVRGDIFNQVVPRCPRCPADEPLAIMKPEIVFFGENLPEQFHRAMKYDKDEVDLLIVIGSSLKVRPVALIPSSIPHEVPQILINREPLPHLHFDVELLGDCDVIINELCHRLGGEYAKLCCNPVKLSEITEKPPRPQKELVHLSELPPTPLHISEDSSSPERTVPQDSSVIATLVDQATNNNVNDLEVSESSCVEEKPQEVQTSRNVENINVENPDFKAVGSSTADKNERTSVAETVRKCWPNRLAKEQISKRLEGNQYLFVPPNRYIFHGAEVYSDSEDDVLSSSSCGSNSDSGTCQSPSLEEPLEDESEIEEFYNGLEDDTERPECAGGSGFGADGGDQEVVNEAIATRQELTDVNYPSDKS

Halo-SIRT7 (M2)-FLAG = Halo-SIRT7 (M2)-FLAG (UniProt Q8BKJ9); test: pull-down; HaloTag pull-down: Halo fusion proteins (30 ug) immobilised on HaloLink Resin, incubated with 500 ug lysate of transfected HEK293T cells in pull-down buffer (10 mM Tris-HCl pH 7.4, 150 mM NaCl, 1% NP-40, 10 mM NaF, 10 mM Na4P2O7), overnight at 4 C, five washes; western blot; only the target …
Halo-SIRT7-FLAG [1] = molecular target: Halo-SIRT7-FLAG (UniProt Q8BKJ9); test: as above
HA-SIRT7 = HA-SIRT7 (UniProt Q8BKJ9); test: co-IP; HEK293T cells transfected for 24 h, lysed in IP buffer (20 mM Tris-HCl pH 7.4, 200 mM NaCl, 2.5 mM MgCl2, 0.05% NP-40); immunoprecipitation overnight at 4 C with anti-HA antibody beads; western blot
[2] = molecular target: endogenous OSX (primary calvarial osteoblasts) (mouse (endogenous in primary calvarial osteoblasts)) (UniProt Q8VI67); test: co-IP; endogenous proteins in primary calvarial osteoblasts differentiated for 6 days; IP buffer (20 mM Tris-HCl pH 7.4, 200 mM NaCl, 2.5 mM MgCl2, 0.05% NP-40); anti-OSX-conjugated magnetic beads, overnight at 4 C; western blot
Halo-SIRT7-FLAG [3] = molecular target: Halo-SIRT7-FLAG (UniProt Q8BKJ9); test: pull-down; HaloTag pull-down: Halo-SIRT7 on HaloLink Resin with lysate of MC3T3-E1 cells without NAM treatment; endogenous OSX detected; only the target purified
Halo-SIRT7-FLAG [4] = molecular target: Halo-SIRT7-FLAG (UniProt Q8BKJ9); test: pull-down; HaloTag pull-down: Halo-SIRT7 on HaloLink Resin with lysate of MC3T3-E1 cells treated with nicotinamide (NAM); endogenous OSX detected; only the target purified

“GAL4DBD-OSX (27-270) (from UniProt Q8VI67 27-270) (domain or fragment)” was tested, and the binding (HA-SIRT1 (mouse)) was “binds”.
For OSX-HA (from UniProt Q8VI67 1-428), the binding (Halo-SIRT7 (M2)-FLAG) was “binds” and the binding (Halo-SIRT7-FLAG [1]) was “binds”.
With “OSX (expressed in HEK293T cells for co-immunoprecipitation with HA-SIRT7) (from UniProt Q8VI67 1-428)” the binding (HA-SIRT7) was “binds”.
“endogenous SIRT7 (from UniProt Q8BKJ9 1-402) (enzyme)” was tested, and the binding [2] was “binds”.
For “endogenous OSX derived from MC3T3-E1 cells (from UniProt Q8VI67 1-428)”, the binding (Halo-SIRT7-FLAG [3]) was “binds weakly” and the binding (Halo-SIRT7-FLAG [4]) was “binds”.
“GAL4DBD-OSX (293-428) (from UniProt Q8VI67 293-428) (domain or fragment)” was tested, and the binding (Halo-SIRT7-FLAG [1]) was “binds”.
